Experimental data as given in publication PMC2980481.
Results are given in words; binding and its absence hold for the method and conditions named. Binding seen in cells or lysates may run through a third protein. Binding calls can cover weak binding; strength is not graded here. Where a sequence is shown, tags or fusion partners need not be part of it.

Target: SUMO E3 ligase mutant PIAS1 (CS) (MYC-tagged)
Assay: co-IP; lysates of 293T cells co-expressing SnoN and PIAS1 (WT or CS); anti-MYC (9E10) IP of PIAS1, anti-SnoN blot; TNTE buffer (50 mM Tris-HCl pH 7.4, 150 mM NaCl, 1 mM EDTA) with 0.5% Triton X-100

B1: FLAG-tagged wild type SnoN (protein, UniProt P12757-1 1-684)
chain: MENLQTNFSLVQGSTKKLNGMGDDGSPPAKKMITDIHANGKTINKVPTVKKEHLDDYGEAPVETDGEHVKRTCTSVPETLHLNPSLKHTLAQFHLSSQSSLGGPAAFSARHSQESMSPTVFLPLPSPQVLPGPLLIPSDSSTELTQTVLEGESISCFQVGGEKRLCLPQVLNSVLREFTLQQINTVCDELYIYCSRCTSDQLHILKVLGILPFNAPSCGLITLTDAQRLCNALLRPRTFPQNGSVLPAKSSLAQLKETGSAFEVEHECLGKCQGLFAPQFYVQPDAPCIQCLECCGMFAPQTFVMHSHRSPDKRTCHWGFESAKWHCYLHVNQKYLGTPEEKKLKIILEEMKEKFSMRSGKRNQSKTDAPSGMELQSWYPVIKQEGDHVSQTHSFLHPSYYLYMCDKVVAPNVSLTSAVSQSKELTKTEASKSISRQSEKAHSSGKLQKTVSYPDVSLEEQEKMDLKTSRELCSRLDASISNNSTSKRKSESATCNLVRDINKVGIGLVAAASSPLLVKDVICEDDKGKIMEEVMRTYLKQQEKLNLILQKKQQLQMEVKMLSSSKSMKELTEEQQNLQKELESLQNEHAQRMEEFYVEQKDLEKKLEQIMKQKCTCDSNLEKDKEAEYAGQLAELRQRLDHAEADRQELQDELRQEREARQKLEMMIKELKLQILKSSKTAKE
With B1 the binding was “binds”.
